For at least one entry, the source does not settle the construct or the ends of the probe. For some of these results: The comparison behind a weaker result is the experiment's own reference, which may not be listed here. For some of these results: At least one verdict was read from the data and is not stated in words by the source.
What was measured:
[1] = target: hRAD51-II3A R130A,R303A,K313A (Homo sapiens) (UniProt Q06609); test: EMSA; details: 2 mM ADP, 10 mM MgCl2, 0.5-6 uM protein, smeared complex, EMSA: 35 mM Tris-HCl pH 7.5, 1 mM DTT, 10 mM MgCl2, 100 ng/ul BSA, 50 mM KCl, 37 C 10 min, 2% agarose TAE at 4 C, recombinant protein, single-stranded DNA
[2] = target: hRAD51 wild-type (Homo sapiens) (UniProt Q06609); test: EMSA; details: 2 mM ADP, 10 mM MgCl2, 0.5-6 uM protein, 3 uM nt DNA, EMSA: 35 mM Tris-HCl pH 7.5, 1 mM DTT, 10 mM MgCl2, 100 ng/ul BSA, 50 mM KCl, 37 C 10 min, 2% agarose TAE at 4 C, recombinant protein, single-stranded DNA
[3] = target: hRAD51-II3A R130A,R303A,K313A (Homo sapiens) (UniProt Q06609); test: cryo-EM (2D classification); details: ADP, shorter, more heterogeneous double-filaments; cryo-EM: 35 mM Tris-HCl pH 7.5, 108 mM KCl, 1 mM DTT, 1 mM ADP, 5 mM CaCl2, 2.5 mM MgCl2, 37 C 30 min; recombinant protein; single-stranded DNA
[4] = target: hRAD51 wild-type (Homo sapiens) (UniProt Q06609); test: cryo-EM ATP chase; details: ADP filament chased with 10 mM ATP, single-filaments 42.5%, well-defined ssDNA density; cryo-EM: 35 mM Tris-HCl pH 7.5, 108 mM KCl, 1 mM DTT, 1 mM ADP, 5 mM CaCl2, 2.5 mM MgCl2, 37 C 30 min; recombinant protein; single-stranded DNA

Chains of the proteins cited; added tags and fusions are not shown.
UniProt Q06609, whole entry R130A/R303A/K313A: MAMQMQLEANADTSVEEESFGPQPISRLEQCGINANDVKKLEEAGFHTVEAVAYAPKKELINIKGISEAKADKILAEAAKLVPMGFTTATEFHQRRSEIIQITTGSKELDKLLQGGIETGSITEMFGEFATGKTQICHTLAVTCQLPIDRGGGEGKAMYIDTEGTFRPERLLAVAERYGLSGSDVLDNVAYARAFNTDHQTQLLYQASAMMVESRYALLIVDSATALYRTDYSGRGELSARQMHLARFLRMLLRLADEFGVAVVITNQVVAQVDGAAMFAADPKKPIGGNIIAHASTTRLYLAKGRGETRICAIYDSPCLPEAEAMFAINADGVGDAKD
UniProt Q06609, whole entry: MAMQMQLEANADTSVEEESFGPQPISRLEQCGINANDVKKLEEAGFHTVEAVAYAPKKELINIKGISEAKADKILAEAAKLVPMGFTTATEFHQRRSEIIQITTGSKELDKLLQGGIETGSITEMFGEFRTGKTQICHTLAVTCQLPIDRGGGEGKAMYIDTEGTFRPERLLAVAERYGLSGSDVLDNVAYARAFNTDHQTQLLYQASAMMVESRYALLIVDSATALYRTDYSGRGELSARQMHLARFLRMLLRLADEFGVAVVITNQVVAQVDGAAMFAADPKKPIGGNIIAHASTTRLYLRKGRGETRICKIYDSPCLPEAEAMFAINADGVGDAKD

**Q.** Does “TTATGTTCATTTTTTATATCCTTTACTTTATTTTCTCTGTTTATTCATTTACTTATTTTGTATTATCCTTATCTTATTTA [Oligo 1 (80 nt ssDNA), Cy5-labeled]” bind [1]?
**A.** binds more weakly

**Q.** Does “TTATGTTCATTTTTTATATCCTTTACTTTATTTTCTCTGTTTATTCATTTACTTATTTTGTATTATCCTTATCTTATTTA [Oligo 1 (80 nt ssDNA), Cy5-labeled]” bind [2]?
**A.** binds

**Q.** Does “TTATGTTCATTTTTTATATCCTTTACTTTATTTTCTCTGTTTATTCATTTACTTATTTTGTATTATCCTTATCTTATTTA [Oligo 1 (80 nt ssDNA), unlabeled]” bind [3]?
**A.** binds

**Q.** Does “TTATGTTCATTTTTTATATCCTTTACTTTATTTTCTCTGTTTATTCATTTACTTATTTTGTATTATCCTTATCTTATTTA [Oligo 1 (80 nt ssDNA), unlabeled]” bind [4]?
**A.** binds

Reference: publication PMC10435448
